The values that follow come from paper PMC10675008.

No constants are given. Whether binding was seen depends on the method and setting. Binding seen in cells or lysates may run through a third protein. Where a sequence is shown, tags or fusion partners need not be part of it.

The experiment concerns the target T1, Myc-tagged version of A. thaliana phosphoribulokinase (PRK-Myc) (A. thaliana) (UniProt P25697).
T1 sequence: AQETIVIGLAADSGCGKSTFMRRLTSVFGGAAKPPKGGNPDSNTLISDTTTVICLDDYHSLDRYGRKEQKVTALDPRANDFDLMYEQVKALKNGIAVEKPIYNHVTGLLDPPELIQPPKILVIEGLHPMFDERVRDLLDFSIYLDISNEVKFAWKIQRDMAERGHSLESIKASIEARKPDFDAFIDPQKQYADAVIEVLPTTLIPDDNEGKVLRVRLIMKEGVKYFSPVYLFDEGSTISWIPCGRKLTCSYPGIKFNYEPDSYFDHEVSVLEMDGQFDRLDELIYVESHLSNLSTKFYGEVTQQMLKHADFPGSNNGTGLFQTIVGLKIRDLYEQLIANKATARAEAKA
Put plainly: co-IP; proteins co-expressed in agroinfiltrated N. benthamiana leaves (collected after 5 days); protein extracts immunoprecipitated with anti-Myc, immunoblot with anti-Myc and anti-HA. A general note: A western blot detects proteins with antibodies after separation by electrophoresis.

Consider “SlDXS2 with a hemagglutinin (HA) tag (SlDXS2-HA) (tomato (Solanum lycopersicum)) (enzyme)”, for which the binding entry was “no binding”.
